{"source": "patent EP2843044A1", "about": "“Improved variant of D-psicose 3-epimerase and uses thereof” (Roquette Frères, priority 2013, dated 2015)", "origin": "cited, not measured here", "key": {"[1]": {"target": "A. tumefaciens DPEase mutant of I33L (Agrobacterium fabrum, UniProt A9CH28, I33L)", "settings": "Reference: Choi et al. 2011; cited from earlier work"}, "[2]": {"target": "A. tumefaciens DPEase mutant of S213C+I33L (Agrobacterium fabrum, UniProt A9CH28, I33L/S213C)", "settings": "Reference: Choi et al. 2011; cited from earlier work"}, "[3]": {"tested_on": "Ruminococcus sp. DPEase, SEQ ID No 8", "settings": "Reference: Zhu et al. 2012; cited from earlier work"}, "[4]": {"tested_on": "C. scindens DPEase, SEQ ID No 6", "settings": "Reference: Zhang et al. 2013; cited from earlier work"}, "[5]": {"target": "A. tumefaciens DPEase, wild type, SEQ ID No 7 (Agrobacterium fabrum, UniProt A9CH28)", "settings": "Reference: Kim et al. 2006; cited from earlier work"}, "[6]": {"target": "A. tumefaciens DPEase mutant of S213C (Agrobacterium fabrum, UniProt A9CH28, S213C)", "settings": "Reference: Choi et al. 2011; cited from earlier work"}}, "note": "The name of at least one read-out is uncertain."}
{"smiles": "O=C(CO)[C@@H](O)[C@H](O)[C@H](O)CO", "note": "[D-fructose]", "values": [{"measurement": "kcat/Km for D-fructose", "setting": "[1]", "value": 105, "unit": "mM^-1 min ^-1"}, {"measurement": "kcat/Km for D-fructose", "setting": "[2]", "value": 134, "unit": "mM^-1 min ^-1"}, {"measurement": "kcat/Km for D-fructose", "setting": "[3]", "value": 16, "unit": "mM^-1 min ^-1"}, {"measurement": "kcat/Km for D-fructose", "setting": "[4]", "value": 8.72, "unit": "mM^-1 min ^-1"}, {"measurement": "kcat/Km for D-fructose", "setting": "[5]", "value": 85, "unit": "mM^-1 min ^-1"}, {"measurement": "kcat/Km for D-fructose", "setting": "[6]", "value": 101, "unit": "mM^-1 min ^-1"}]}
